Measurements as given in PubChem BioAssay AID1439 (NMMLSC, 2008).
About 770 (0.35%) of roughly 220,000 compounds were called active. Inconclusive means that the source gave no clear call. Such entries were picked first, then a sample of the others. Cut-off read from the data, not from the text of the source: active = binding response below about 49% or above about 150%; inconclusive = no clear call, values can overlap the other calls; inactive = in between.

Amino acid sequences for entries named in this document (tags omitted).
UniProt P09471, whole entry, looked up: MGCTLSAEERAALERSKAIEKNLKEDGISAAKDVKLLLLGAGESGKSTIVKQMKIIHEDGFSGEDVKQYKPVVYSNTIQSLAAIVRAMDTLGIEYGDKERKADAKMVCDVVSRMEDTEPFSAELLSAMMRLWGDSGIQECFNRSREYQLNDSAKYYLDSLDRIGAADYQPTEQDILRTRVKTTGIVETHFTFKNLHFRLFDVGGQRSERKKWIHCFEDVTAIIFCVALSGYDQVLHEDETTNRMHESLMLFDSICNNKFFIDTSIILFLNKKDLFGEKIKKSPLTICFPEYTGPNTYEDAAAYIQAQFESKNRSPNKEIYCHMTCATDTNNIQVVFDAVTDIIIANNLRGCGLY

These compounds were tested against Guanine nucleotide-binding protein G(o) subunit alpha (Homo sapiens) (UniProt P09471) (assay: RGS7-Galphao binding modulators, primary screen, biochemical, multiplexed bead flow cytometry (AID 1439;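 note: fluorescent Galphao held in activated GDP-AlF4 state binding bead-coupled RGS7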)). Details: at 10 µM, actives lie on both sides.
`COCCNC(=S)Nc1ccccc1Cc1ccccc1` was tested, and the binding response (% of control) was inconclusive: 109%. With `CC(=O)Nc1ccc(S(=O)(=O)Nc2cc(-c3ccccc3)nn2C)cc1` the binding response (% of control) was inconclusive: 105%. In the case of `CCn1c(SCC(=O)Nc2ccc(-c3nc4ccc(C)cc4s3)cc2)nnc1-c1ccccc1`, the binding response (% of control) is reported as inactive: 112%. `CC(CNS(=O)(=O)c1cc(Cl)ccc1Cl)CN(C)C` (stereo unspecified) was tested, and the binding response (% of control) was inactive: 102%. With `Cn1nnc(NC(=O)c2cccc([N+](=O)[O-])c2)n1` the binding response (% of control) was inconclusive: 95.8%. `Cn1cc(NC(=O)Nc2ccc(C(F)(F)F)cc2)c(C(F)(F)F)n1` was tested, and the binding response (% of control) was inconclusive: 55.4%. `Cn1c(=O)c2c(ncn2CC(=O)Nc2ccccc2Sc2ccccc2)n(C)c1=O` was tested, and the binding response (% of control) was inactive: 102%. For `CC(C)NC(=O)COc1cccc2ccccc12`, the binding response (% of control) was inconclusive: 92.8%. With `Oc1c(C(Nc2cccc(C(F)(F)F)c2)c2ccncc2)ccc2cccnc12` (stereo unspecified) the binding response (% of control) was inconclusive: 101%. With `O=C(CSCSCC(=O)NCC1CCCO1)NCC1CCCO1` (stereo unspecified) the binding response (% of control) was inactive: 95.8%. `O=C(c1ccc(=O)[nH]n1)N1CCN(S(=O)(=O)c2ccc3ccccc3c2)CC1` was tested, and the binding response (% of control) was inconclusive: 144%. `CCN(CC)C(=O)CSc1nnc(-c2ccccn2)n1-c1ccccc1OC` was tested, and the binding response (% of control) was inconclusive: 123%. `Cc1ccc(C(=O)N2CCC3(CC2)Oc2ccc(Cl)cc2C(=O)C32CC(c3cccnc3)=NO2)s1` (stereo unspecified) was tested, and the binding response (% of control) was inconclusive: 106%. For `O=C1CC(c2ccc(O)c(O)c2)Oc2cc(O)cc(O)c21` (stereo unspecified), the binding response (% of control) was inconclusive: 106%. In the case of `CCOc1ccc(C(CC(=O)O)NC(=O)C(Sc2ccccc2)c2ccccc2)cc1` (stereo unspecified), the binding response (% of control) is reported as inactive: 98.9%. In the case of `Cc1ccc(C2=NN(CCC(=O)NCc3ccc4c(c3)OCO4)C(=O)CC2)cc1`, the binding response (% of control) is reported as inactive: 115%. For `COc1cc(C(F)(F)F)c(C(=O)NCc2cccc(Cl)c2)cn1`, the binding response (% of control) was inconclusive: 129%. In the case of `Fc1cc(F)c2nc(N3CCCC3)sc2c1`, the binding response (% of control) is reported as inactive: 99.9%. In the case of `COc1ccc(C(CCNCc2ccc(N(C)C)cc2)C(C)C)cc1` (stereo unspecified), the binding response (% of control) is reported as inconclusive: 107%. For `CCCNC(=O)Nc1ccc(NC(C)=O)cc1`, the binding response (% of control) was inconclusive: 85.8%. With `COc1nc(-c2ccccc2)cc(-c2ccc3c(c2)OCO3)c1C#N` the binding response (% of control) was inconclusive: 106%. With `CCN(CC)C(=O)CSc1nnc(-c2ccccn2)n1Cc1ccccc1` the binding response (% of control) was inconclusive: 111%. For `Cc1cc(C)cc(N(C(C)C(=O)NCc2ccc3c(c2)OCO3)S(C)(=O)=O)c1` (stereo unspecified), the binding response (% of control) was inactive: 104%. In the case of `CN(CCN1CCOCC1)Cc1nc(-c2ccc(Cl)cc2)no1`, the binding response (% of control) is reported as inconclusive: 94.7%. In the case of `O=C1N/C(=N\S(=O)(=O)Cc2ccccc2)S/C1=C/c1cc([N+](=O)[O-])ccc1O`, the binding response (% of control) is reported as inconclusive: 88.7%. `COC(=O)CCCCCNC(=S)Nc1ccc2[nH]c(=O)[nH]c2c1` was tested, and the binding response (% of control) was inconclusive: 97.1%. In the case of `CCOc1ccc(N(C)S(=O)(=O)c2ccc(C)c(C(=O)OCC(=O)c3c[nH]c4ccccc34)c2)cc1`, the binding response (% of control) is reported as inactive: 96.2%. For `CC1(CCc2ccccc2)NC(=O)N(CC(=O)Nc2ccccc2)C1=O` (stereo unspecified), the binding response (% of control) was inconclusive: 87.3%. For `COC(=O)Cn1c(=O)c(C(=O)CCl)c(N)n(Cc2ccccc2)c1=O`, the binding response (% of control) was inconclusive: 41.2%. For `Cc1cc2c(o1)CC(C)(C)CC2=O`, the binding response (% of control) was inconclusive: 105%. In the case of `O=C(CSc1ccc(-c2ccccn2)nn1)NC1CCCCC1`, the binding response (% of control) is reported as inconclusive: 101%. With `Cc1cnn(Cc2cccnc2)c1N` the binding response (% of control) was inconclusive: 114%. `CCCCNC(=O)COC(=O)c1ccc(Cl)c(S(N)(=O)=O)c1` was tested, and the binding response (% of control) was inactive: 89.3%. `COc1ccc(S(=O)(=O)NNC(=O)c2ccc(-n3c(C)ccc3C)cc2)cc1` was tested, and the binding response (% of control) was inconclusive: 123%. With `COc1ccccc1N1CCN(C(=O)Cn2cnc3c2c(=O)n(C)c(=O)n3C)CC1` the binding response (% of control) was inconclusive: 113%. `O=C(Nc1cccc(S(=O)(=O)N2CCOCC2)c1)c1ccccn1` was tested, and the binding response (% of control) was inconclusive: 89.9%. For `Cc1cc(N)n(-c2ccc([N+](=O)[O-])cc2)n1`, the binding response (% of control) was inconclusive: 76%. `Nc1nc(N)c(C=Nc2ccc(Br)cc2)c(Nc2ccc(Br)cc2)n1` was tested, and the binding response (% of control) was inconclusive: 98.2%. `COc1cc(/C=C/C(=O)N2CCN(C)CC2)cc(S(=O)(=O)N2CCc3ccccc32)c1OC` was tested, and the binding response (% of control) was inconclusive: 106%. `CSc1nccc(Oc2ccc(C#N)cc2)n1` was tested, and the binding response (% of control) was inactive: 104%. `NNc1ccc(Cl)c(C(=O)O)c1` was tested, and the binding response (% of control) was inconclusive: 79.6%. `CC(C(=O)O/N=C(\N)c1cccnc1)c1ccc([N+](=O)[O-])cc1` (stereo unspecified) was tested, and the binding response (% of control) was inactive: 98.8%. With `Cn1c(=O)c2c(ncn2CC(=O)Nc2ccc(Cl)cc2Cl)n(C)c1=O` the binding response (% of control) was inactive: 101%. For `Cc1cc(C(=O)Oc2cccnc2)ccc1[N+](=O)[O-]`, the binding response (% of control) was inactive: 104%. `CCCCC1=CC2=C(c3ccco3)C(=O)C(C)(OC(=O)c3ccc(OC)cc3)C(=O)C2=CN1CCCCO` (stereo unspecified) was tested, and the binding response (% of control) was inconclusive: 94.2%. With `O=C(c1ccc2c3n(nc2c1)-c1ccc(Cl)cc1CO3)N1CCCCC1` the binding response (% of control) was inconclusive: 95.6%. `NS(=O)(=O)c1ccc(NC(=O)COc2ccc(C(=O)c3ccc(F)cc3)cc2)cc1` was tested, and the binding response (% of control) was inconclusive: 95.2%. With `Cc1oc(C(C)(C)C)cc1C(N)=O` the binding response (% of control) was inconclusive: 61%. With `O=S(=O)(c1cccc(-c2csc(-c3cccnc3)n2)c1)N1CCOCC1` the binding response (% of control) was inconclusive: 104%. With `COc1ccc(C2CC(=O)C(C(c3ccc(O)cc3)C3C(=O)CC(c4ccc(OC)cc4)CC3=O)C(=O)C2)cc1` (stereo unspecified) the binding response (% of control) was inconclusive: 77.8%. `NC(=O)c1nn(-c2ccccc2)nc1NC(=O)CN1CCOCC1` was tested, and the binding response (% of control) was inconclusive: 124%. In the case of `O=C(Nc1ncc2c(n1)CC(c1ccco1)CC2=O)c1ccco1` (stereo unspecified), the binding response (% of control) is reported as inconclusive: 91.1%. In the case of `CCC(C)NC(=O)CSc1nnc(-c2ccc(Cl)cc2)n1N` (stereo unspecified), the binding response (% of control) is reported as inconclusive: 99.8%. In the case of `N#CC1c2ccccc2C=CN1C(=O)c1ccccc1` (stereo unspecified), the binding response (% of control) is reported as inconclusive: 108%. For `CN(C)/C=C/C(=O)c1ccccc1`, the binding response (% of control) was inconclusive: 25.4%. `CCN(CC)c1ccc(/C=N/NC(=O)OC(C)(C)C)cc1` was tested, and the binding response (% of control) was inconclusive: 196%. In the case of `O=C(NCC1(c2ccccc2)CCOCC1)c1cccs1`, the binding response (% of control) is reported as inconclusive: 92.8%. `COc1ccc(-c2[nH]ncc2C=O)cc1OC` was tested, and the binding response (% of control) was inconclusive: 86.1%. `O=C(Nc1ccccc1)c1ccc(-c2ccccc2)s1` was tested, and the binding response (% of control) was inconclusive: 88.3%. `COc1ccc(Cl)cc1C(=O)Nc1nnn(C)n1` was tested, and the binding response (% of control) was inactive: 107%. `O=c1c(Cc2ccc(F)cc2)c(O)ccn1CCCn1ccnc1` was tested, and the binding response (% of control) was inconclusive: 103%. With `CSc1ncccc1C(=O)OCc1ccccc1Cl` the binding response (% of control) was inactive: 99.2%. For `CC(=O)Nc1ccc(NC(=S)Nc2ccc(Br)cc2)cc1`, the binding response (% of control) was inconclusive: 68.5%. In the case of `COc1ccc(C(=O)NCC(=O)N/N=C(\C)c2ccco2)cc1OC`, the binding response (% of control) is reported as inconclusive: 188%. For `O=C(NC1CCCC1)C(c1ccc(N2CCOCC2)cc1)N(C(=O)c1ccco1)c1ccccc1F` (stereo unspecified), the binding response (% of control) was inactive: 95.4%. In the case of `CC(=O)c1c(N2CCOCC2)nc2ccc(Br)cc2c1-c1ccccc1`, the binding response (% of control) is reported as inconclusive: 95.8%. With `COc1ccc(CCN2C(=NC(=O)CC(C)C)SC3CS(=O)(=O)CC32)cc1OC` (stereo unspecified) the binding response (% of control) was inconclusive: 105%. With `CCN(CC)CCCN1C=C2C(=O)C(C)(OC(=O)CCc3ccccc3)C(=O)C=C2C=C1c1ccc(C#N)cc1` (stereo unspecified) the binding response (% of control) was inconclusive: 28.5%. For `O=C1Cc2ccccc2Sc2ccc(O)cc21`, the binding response (% of control) was inactive: 98.5%. For `COc1cc([N+](=O)[O-])ccc1NC(=O)COC(=O)c1ccc(NC(N)=O)cc1`, the binding response (% of control) was inconclusive: 85.5%. For `CNC(=O)c1c(NC(=O)c2ccc(S(=O)(=O)N3CCCc4ccccc43)cc2)sc2c1CCN(C)C2`, the binding response (% of control) was inconclusive: 80.6%. For `COc1ccc(S(=O)(=O)c2ccc(OC)cc2)cc1`, the binding response (% of control) was inactive: 98.9%. In the case of `O=C1C=CC(=O)N1c1ccc(I)cc1Cl`, the binding response (% of control) is reported as inconclusive: 123%. In the case of `COCCCN(CC(=O)Nc1ccc(N2CCOCC2)cc1)S(=O)(=O)c1ccc(Cl)cc1`, the binding response (% of control) is reported as inconclusive: 101%. For `CCN1C(=O)c2cccc3c(S(=O)(=O)NCC4CCCO4)ccc1c23` (stereo unspecified), the binding response (% of control) was inconclusive: -672%. `CC(=O)NC1(C(F)(F)F)C(=O)Nc2c1c(=O)[nH]c(=O)n2-c1ccccc1` (stereo unspecified) was tested, and the binding response (% of control) was inconclusive: 98.4%. With `CCOc1ccc(S(=O)(=O)NCCC(=O)OCC(=O)N2CC(=O)Nc3ccccc32)cc1` the binding response (% of control) was inconclusive: 109%. `CC1=NN(C(C#N)c2ccccc2)C(c2ccccc2)C1` (stereo unspecified) was tested, and the binding response (% of control) was inconclusive: 430%. With `N#C/C(=C\c1c(F)cccc1Cl)S(=O)(=O)c1ccccn1` the binding response (% of control) was inconclusive: 106%. In the case of `CS/C(N)=N/N=C/c1cc(Br)cc(Br)c1O`, the binding response (% of control) is reported as inconclusive: 117%. In the case of `CS(=O)(=O)N1CCN(c2ccc(C(=O)N3CCOCC3)cc2[N+](=O)[O-])CC1`, the binding response (% of control) is reported as inconclusive: 103%. For `CCn1cc(C(=O)O)c(=O)c2cnc(N3CCN(C(=S)NC(=O)c4ccc(Br)cc4)CC3)nc21`, the binding response (% of control) was inconclusive: 134%. In the case of `CCOC(=O)C(=O)N/N=C/c1cccc(Br)c1`, the binding response (% of control) is reported as inconclusive: 963%. With `COc1ccc2cc(CN(CC3CCCO3)C(=S)Nc3ccccc3)c(=O)[nH]c2c1` (stereo unspecified) the binding response (% of control) was inactive: 98.3%. For `COC(=O)N1C/C=C\C(c2ccc(OC)cc2)N(Cc2ccc(F)cc2)C(=O)C1` (stereo unspecified), the binding response (% of control) was inconclusive: 111%. With `O=c1[nH]snc1N1CCOCC1` the binding response (% of control) was inconclusive: 97.7%. For `Cc1nn(C)c(C)c1/C=C(/C(=O)C(C)C)n1cncn1`, the binding response (% of control) was inconclusive: 83.3%. For `Cc1ccccc1Nc1nc(N)nc(CSc2nnc(C)n2C)n1`, the binding response (% of control) was inconclusive: 114%. With `Nc1c(-c2cccc([N+](=O)[O-])c2)nc2ccccn12` the binding response (% of control) was inactive: 97.1%. In the case of `CCOc1cc(NC(=O)C2CC2)c(OCC)cc1NC(=O)CCn1nnc2ccccc21`, the binding response (% of control) is reported as inactive: 99.5%. With `O=C(NC(=S)Nc1ccc(CN2CCOCC2)cc1)c1ccc(-c2cccc(Cl)c2)o1` the binding response (% of control) was inconclusive: 120%.
